At least one compound was matched to its structure with a doubt left.
Test system: Pseudomonas syringae pv. actinidiae CRAFRU 10.22 and Pseudomonas syringae pv. tomato DC3000
Test: Bacterial growth curves (OD600 nm, 24 hours) with loaded or empty nanoparticles
Type: cell-based
Conditions: KB medium, neutral pH (pH 7.2), OD600 nm over 24 hours

## NC[C@H]1O[C@H](O[C@H]2[C@H](O)[C@@H](O[C@H]3O[C@H](CO)[C@@H](O)[C@H](N)[C@H]3O)[C@H](N)C[C@@H]2N)[C@H](O)[C@@H](O)[C@@H]1O [pure kanamycin, kanamycin]
  inhibition of bacterial growth: complete inhibition of bacterial growth

Source: US20240049724A1, “CAPSIDIC NANOPARTICLES OF COWPEA MOSAIC VIRUS WITHOUT GENETIC MATERIAL FOR THE TREATMENT OF A DISEASE OF THE AERIAL PART OF A PLANT” (DIAMANTE SOCIETA 'BENEFIT S.R.L., priority 2020, published 2024)
